Laboratory results as given in PubChem BioAssay AID624297 (National Center for Advancing Translational Sciences (NCATS), 2012).
In all, about 340,000 compounds went through this assay and about 6,200 (1.8%) were called active. This list was built around the results that the source calls inconclusive (neither active nor inactive); the mix of calls is not that of the screen. Calls follow the shape of the dose curve; as a rule, active = well fitted activation curve with a large enough effect; inconclusive = small, poorly fitted or top-dose-only effect; inactive = no such curve, though single readings can be large or run the other way. Potencies beside an inconclusive call are fits to weak or partial responses and may not hold up.

experiment: A quantitative high throughput screen for small molecules that induce DNA re-replication in SW480 colon adenocarcinoma cells.; also: nearly all actives have a fitted effect of over 55% in size; conditions: Hoechst DNA content imaging, 48 h; series mostly up to 46.1 µM
Procedure, shortened: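 First, 250 cells per well were seeded. Next, compound or vehicle (23 nL) was pinned in, plates sat 48 hr at 37 C. Finally Hoechst was added for 40 min before fluorescence scanning.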
Potency is read from the fitted curve at half-maximal effect.

Row | SMILES | Potency
1 | CC(=O)Nc1ccc(/C(C)=N/Nc2nc(Nc3cccc4ccccc34)nc(N3CCOCC3)n2)cc1 | inconclusive: 29.1 µM [activator, single point]
2 | Oc1ccccc1-c1nc(NCC2CCCO2)c2ccccc2n1 (stereo unspecified) | inactive
3 | Cc1c(Cl)cccc1NC(=O)COC(=O)c1c2c(nc3ccccc13)CCN(Cc1ccccc1)C2 | inconclusive: 9.2 µM [activator, partial curve]
4 | Cc1c([N+](=O)[O-])cnc(Sc2ccccc2)c1[N+](=O)[O-] | inconclusive: 32.6 µM [activator, single point]
5 | Cc1cccc(/C=N\NC(=O)c2ccc(Cl)cc2)c1O | inconclusive: 1.46 µM [activator, partial curve, poor fit]
6 | CCOC(=O)C1=C(C)NC2=C(C(=O)OC2)C1c1ccccc1 (stereo unspecified) | inconclusive: 25.9 µM [activator, single point]
7 | CCO[C@@H]1OC(C(=O)NCc2ccccc2)=C[C@H](c2ccc(C(F)(F)F)cc2)[C@H]1CCCO | inconclusive: 0.0046 µM [activator, full curve, poor fit]
8 | O=S1(=O)N=C(N2CCN(Cc3ccc4c(c3)OCO4)CC2)c2ccccc21 | inactive
9 | O=Cc1sc(Nc2ccccc2)nc1Cl | inactive
10 | O=c1cc(COc2ncnc3ccccc23)nc2sccn12 | inconclusive: 2.59 µM [activator, partial curve, poor fit]
11 | O=S(=O)(NCCN1CCOCC1)c1ccc2ccccc2c1 | inconclusive: 23.1 µM [activator, single point]
12 | CCCCCCC(C)NC(=S)Nc1cc(S(=O)(=O)N(C)C)ccc1C (stereo unspecified) | inconclusive: 16.4 µM [activator, partial curve, poor fit]
13 | O=C1OC2(c3ccccc31)c1ccccc1-c1ccccc12 | inconclusive: 18.4 µM [activator, single point]
14 | CCOC(=O)c1cnc(-n2nc(C)cc2C)nc1NC | inconclusive: 23.1 µM [activator, single point]
15 | COc1ccc2c(c1)/C(=C\c1cccc(/C=C3/C(=O)Nc4ccc(OC)cc43)n1)C(=O)N2 | active: 2.91 µM
16 | Cc1cc(C)c(C(=O)Nc2ccc(Br)c(C(F)(F)F)c2)c(C)c1 | inconclusive: 29.1 µM [activator, single point]
17 | CCCCNc1nc(N)nc(-c2cc(Cl)ccc2O)n1 | inconclusive: 20.6 µM [activator, single point]
18 | Cc1onc(-c2c(F)cccc2Cl)c1C(=O)Nc1cccc2nsnc12 | active: 16.4 µM
19 | C=CCN(CC=C)S(=O)(=O)c1ccc(C(=O)Nc2nc3c(s2)CCc2ccccc2-3)cc1 | active: 14.6 µM
20 | Cc1nn(Cc2ccccc2)c(C)c1C(=O)NCCN1C(=O)S/C(=C\c2ccccc2)C1=O | inconclusive: 14.6 µM [activator, partial curve, poor fit]
21 | CCc1nnc(NC(=O)c2cccc(S(=O)(=O)N3CCN(c4ccccc4)CC3)c2)s1 | inconclusive: 18.4 µM [activator, single point]

Two of these compounds in a different format:
O=C1OC2(c3ccccc31)c1ccccc1-c1ccccc12
  Potency: inconclusive: 18.4 µM [activator, single point]
CCOC(=O)c1cnc(-n2nc(C)cc2C)nc1NC
  Potency: inconclusive: 23.1 µM [activator, single point]

The results go on:

Row | SMILES | Potency
22 | COc1ccc(-c2csc3ncnc(N4CCN(c5ccccc5[N+](=O)[O-])CC4)c23)cc1 | inconclusive: 29.1 µM [activator, partial curve, poor fit]
23 | CN(C)n1cccc1/C=C(\C#N)S(=O)(=O)c1ccc(Cl)cc1 | inconclusive: 32.6 µM [activator, single point]
24 | CN1CCc2c(sc3nc(SCC(=O)N4CCCCC4)n(-c4ccccc4)c(=O)c23)C1 | inconclusive: 10.3 µM [activator, partial curve, poor fit]
25 | O=C(c1ccc(S(=O)(=O)Cc2ccccc2Cl)c([N+](=O)[O-])c1)N1CCOCC1 | inconclusive: 29.1 µM [activator, single point]
26 | Cc1nn(-c2nc3ccccc3s2)c(C)c1Oc1ccccc1O | inconclusive: 29.1 µM [activator, single point]
27 | COc1ccc(OC)c(NC(=O)c2sc3nc(C)cc(C)c3c2N)c1 | active: 9.2 µM
28 | C=CCSc1n[nH]c(-c2ccc(OCCC)cc2)n1 | inconclusive: 29.1 µM [activator, single point]
29 | COc1ccc(/C=C(\C#N)c2nc3ccc(C)cc3[nH]2)cc1Oc1ccc(C(F)(F)F)cc1[N+](=O)[O-] | inconclusive: 23.1 µM [activator, single point]
30 | O=C(COc1ccc(Br)cc1)N1CCN(S(=O)(=O)/C=C/c2ccccc2)CC1 | inconclusive: 18.4 µM [activator, partial curve, poor fit]
31 | O=C(Cc1c(F)cccc1Cl)N1CCCC1 | inconclusive: 6.51 µM [activator, single point]
32 | c1ccn2cc(-c3ccc4c(c3)OCO4)cc2c1 | inconclusive: 11.6 µM [activator, partial curve, poor fit]
33 | C[C@H]1CCC[C@]2(C)C[C@H]3OC(=O)C(CN4CCCCCC4)[C@H]3C=C12 (stereo partly specified) | inconclusive: 16.4 µM [activator, single point]
34 | Cc1cc(-c2ccc(C)c(S(=O)(=O)N3CCN(c4ccc(F)cc4)CC3)c2)on1 | inconclusive: 31.6 µM [activator, single point]
35 | COc1ccc(N=C2SC(CC(=O)Nc3cccc(Cl)c3)C(=O)N2Cc2ccco2)cc1 (stereo unspecified) | inconclusive: 16.4 µM [activator, single point]
36 | CC(C)NCC(=O)C12CC3CC(CC(C3)C1)C2 | inactive
37 | Cc1ccc(-c2nc(NC(=O)c3nn(C)cc3[N+](=O)[O-])sc2C)cc1 | inactive
38 | O=C(COc1ccc(Br)cc1)N/N=C1/SCC(=O)N1Cc1ccco1 | inconclusive: 18.4 µM [activator, single point]
39 | Cc1ccccc1OCC(=O)Nc1ccccc1N1CCCCC1 | inconclusive: 20.6 µM [activator, partial curve, poor fit]
40 | COc1ccc(-c2nc3ccccc3c(=O)n2CCOc2ccccc2C)cc1 | inactive
41 | Cc1ccc(C)c(Nc2c([N+](=O)[O-])cc(C(=O)N3CC(=O)Nc4ccccc43)cc2[N+](=O)[O-])c1 | inconclusive: 20.6 µM [activator, partial curve, poor fit]
